Experimental data from the supplement of paper PMC12889115.
The other results are listed elsewhere or left out. Values are raw readings; no control value is given beside them.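 In the initial screen, polymyxin B was used at a concentration that permeabilizes Salmonella's outer membrane but not its inner membrane. Maximum growth was set by DMSO wells with or without polymyxin B. Since plates varied, data were ranked per plate, and compounds giving the lowest OD600 advanced as hits.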

Tested on: Salmonella enterica serovar Typhimurium SL1344
Experiment: bacterial growth OD600 after 18 h with compound and polymyxin B; higher = more bacterial growth (less inhibition)
Conditions: 50 µM, Mueller-Hinton broth

| Structure (SMILES) | bacterial growth OD600 (polymyxin B 1 µg/mL) | bacterial growth OD600 (polymyxin B 0.75 µg/mL) |
| --- | --- | --- |
| O=C(c1cc(Cn2cnc3ccccc32)[nH]n1)N1CCSCC1 | 0.928 |  |
| COC1CCN(c2ccc(C(=O)NCCCc3c(C)noc3C)cn2)CC1 | 1.09 |  |
| O=C(NCCc1cccc(F)c1)C1CCCN(C2CCN(C(=O)C3CC3)CC2)C1 (stereo not given) | 0.81 |  |
| Cn1c(-c2ccncc2)nc2cc(C(=O)NCc3ccccc3Cl)cc(NC(=O)C3CCC3)c21 |  | 0.776 |
| CC(=O)c1ccc(OCc2cc(C(=O)N(C)CC(O)c3ccccc3)no2)cc1 (stereo not given) | 0.933 |  |
| Cc1cc(C(=O)NC2CCCc3nc(-c4ccccc4)ncc32)no1 (stereo not given) | 0.993 |  |
| COc1cccc(C(=O)N2CCc3c(cnc(C)c3CNS(=O)(=O)c3cccs3)C2)c1OC |  | 0.82 |
| O=C(c1n[nH]c2c1CCC2)N1CC[C@@H](N2CCN(c3ccccc3F)CC2)[C@H](O)C1 | 0.944 |  |
| Cc1nc(CN(C)C(=O)CC2(c3ccccc3)CC(=O)N(CCCOc3cccnc3)C2=O)cs1 (stereo not given) |  | 0.951 |
| Cc1nnc(-c2cccc(NC(=O)C3CCN(C(=O)C4CC45CCC5)CC3)c2)s1 (stereo not given) | 0.976 |  |
| CCOC(=O)C1(Cc2ccccc2C)CCCN(Cc2cc[nH]n2)C1 (stereo not given) | 0.9 |  |
| COc1ccc(F)c(CC2(CCC(=O)NCCc3nc4ccccc4c(=O)[nH]3)CCC(=O)N2)c1 (stereo not given) |  | 0.806 |
| O=C(NCc1ccncc1)c1ccc(OC2CCN(Cc3ccc(CO)o3)CC2)cc1 | 1.21 |  |
| CC(C)N(C)CC1(O)CCCN(CCc2ccccc2)C1=O (stereo not given) | 0.968 |  |
| Cc1ccc(C(=O)NC2CC(C)(C)Cc3nc(N4CCOCC4)ncc32)cn1 (stereo not given) | 0.852 |  |
| CC(C)(C)C(=O)NC1CC(=O)N(Cc2ccc(F)cc2)C1 (stereo not given) | 0.856 |  |
| CN(C(=O)c1ccc(OC2CCN(S(=O)(=O)N(C)C)CC2)cc1)C(C1CC1)C1CC1 | 1.07 |  |
| O=C1CCC(CCNCCOc2ccc(F)cc2)N1CC1CCCCC1 (stereo not given) |  | 0.67 |
| Cc1ccc(C2(c3noc(CN4CCC(Oc5cccnc5)CC4)n3)CCCC2)cc1 | 0.017 |  |
| COC(=O)c1cccc(C(=O)N2CCCC(Nc3ccc(F)cc3)C2)c1 (stereo not given) | 0.878 |  |

No new results follow: 2 of the compounds above.

| Structure (SMILES) | bacterial growth OD600 (polymyxin B 1 µg/mL) | bacterial growth OD600 (polymyxin B 0.75 µg/mL) |
| --- | --- | --- |
| Cn1c(-c2ccncc2)nc2cc(C(=O)NCc3ccccc3Cl)cc(NC(=O)C3CCC3)c21 |  | 0.776 |
| CC(=O)c1ccc(OCc2cc(C(=O)N(C)CC(O)c3ccccc3)no2)cc1 (stereo not given) | 0.933 |  |
